These are yes or no findings as the source states them, for the method shown. Binding can be weak; no strength is given.
B1: SP_1354, ribosomal protein L7/L12 (protein, UniProt P0A471 1-122)
chain: MALNIENIIAEIKEASILELNDLVKAIEEEFGVTAAAPVAVAAADAADAGAAKDSFDVELTSAGDKKVGVIKVVREITGLGLKEAKELVDGAPALVKEGVATAEAEEIKAKLEEAGASVTLK
B2: SP_1881, glutamate racemase (protein, UniProt P63640 1-264)
chain: MDNRPIGFLDSGVGGLTVVRELMRQLPHEEIVYIGDSARAPYGPRPAEQIREYTWQLVNFLLTKDVKMIVIACNTATAVVWEEIKAQLDIPVLGVILPGASAAIKSSQGGKIGVIGTPMTVQSDIYRQKIHDLDPDLQVESLACPKFAPLVESGALSTSVTKKVVYETLRPLVGKVDSLILGCTHYPLLRPIIQNVMGPKVQLIDSGAECVRDISVLLNYFEINRGRDAGPLHHRFYTTASSQSFAQIGEEWLEKEIHVEHVEL

Molecular target: Cp-1 orf10, Connector protein (phage Cp-1 of S. pneumoniae)
Test: two-hybrid; yeast two-hybrid array screen: Cp-1 and Dp-1 baits in pDEST32 against 1,704 S. pneumoniae TIGR4 ORF preys in pDEST22; strength by 3-AT up to 50 mM (3AT score = 3ATmax - 3ATbackground)

Binder | binding
B1 | binds
B2 | binds

From publication PMC4840434, “The interactome of Streptococcus pneumoniae and its bacteriophages show highly specific patterns of interactions among bacteria and their phages” (Scientific Reports, 2016)
